{"sequences": {"note": "By UniProt entry, the sequences of proteins in these tests, tags left out. Where a name states a change or a piece, a line headed by the entry shows the natural chain unless it says otherwise.", "UniProt P23771": "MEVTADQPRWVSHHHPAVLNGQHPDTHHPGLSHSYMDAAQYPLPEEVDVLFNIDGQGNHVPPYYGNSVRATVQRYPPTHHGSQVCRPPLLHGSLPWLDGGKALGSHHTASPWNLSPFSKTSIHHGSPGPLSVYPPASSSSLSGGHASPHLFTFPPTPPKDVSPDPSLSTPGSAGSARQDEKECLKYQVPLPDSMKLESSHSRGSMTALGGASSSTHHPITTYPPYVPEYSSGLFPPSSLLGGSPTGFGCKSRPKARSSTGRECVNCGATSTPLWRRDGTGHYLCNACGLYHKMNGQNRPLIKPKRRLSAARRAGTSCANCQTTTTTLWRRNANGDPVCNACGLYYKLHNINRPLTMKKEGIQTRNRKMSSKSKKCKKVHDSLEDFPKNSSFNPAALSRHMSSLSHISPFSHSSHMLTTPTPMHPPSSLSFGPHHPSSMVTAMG"}, "source": "paper PMC6029763", "key": {"[1]": {"biological_target": "GATA3 (Th2 nuclear extract) (Homo sapiens) (UniProt P23771)", "experiment": "competition with a labelled probe", "settings": "100X cold competitor; EMSA: 50 mM NaCl, 10% glycerol, poly dI:dC 50 ng/uL, BSA 0.2 ug/uL, protease inhibitor, on ice 30 min; 5% native PAGE, 0.5X TBE, 4 C; pH not stated; protein in an extract; label: unlabeled"}, "[2]": {"biological_target": "T1, NFAT1 (Th2 nuclear extract) (Homo sapiens) (UniProt Q13469)", "T1 sequence (looked up, limits assumed)": "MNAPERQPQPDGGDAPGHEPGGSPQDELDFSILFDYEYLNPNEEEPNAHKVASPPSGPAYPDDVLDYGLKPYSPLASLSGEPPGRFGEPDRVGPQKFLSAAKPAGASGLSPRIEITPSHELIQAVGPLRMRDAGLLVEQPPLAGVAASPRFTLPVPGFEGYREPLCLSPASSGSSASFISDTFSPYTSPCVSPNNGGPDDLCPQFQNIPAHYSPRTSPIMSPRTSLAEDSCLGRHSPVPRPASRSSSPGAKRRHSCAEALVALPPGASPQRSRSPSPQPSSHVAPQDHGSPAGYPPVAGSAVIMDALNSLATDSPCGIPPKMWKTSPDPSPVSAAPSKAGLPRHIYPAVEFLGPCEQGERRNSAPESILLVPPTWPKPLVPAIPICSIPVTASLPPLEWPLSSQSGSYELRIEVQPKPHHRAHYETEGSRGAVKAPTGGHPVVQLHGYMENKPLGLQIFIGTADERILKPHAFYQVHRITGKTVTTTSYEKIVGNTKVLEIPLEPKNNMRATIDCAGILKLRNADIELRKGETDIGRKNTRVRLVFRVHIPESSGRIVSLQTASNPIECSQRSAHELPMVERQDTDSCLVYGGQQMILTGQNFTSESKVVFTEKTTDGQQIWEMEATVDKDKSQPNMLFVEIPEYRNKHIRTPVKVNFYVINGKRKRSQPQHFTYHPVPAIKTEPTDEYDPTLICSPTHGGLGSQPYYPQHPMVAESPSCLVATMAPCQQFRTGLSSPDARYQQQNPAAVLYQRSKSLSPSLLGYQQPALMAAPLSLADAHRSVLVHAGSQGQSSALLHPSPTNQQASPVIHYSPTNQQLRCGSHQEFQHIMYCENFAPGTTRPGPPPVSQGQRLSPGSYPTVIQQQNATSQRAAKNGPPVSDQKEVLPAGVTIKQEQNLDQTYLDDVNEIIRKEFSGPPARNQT", "experiment": "competition with a labelled probe", "settings": "100X cold competitor; EMSA: 50 mM NaCl, 10% glycerol, poly dI:dC 50 ng/uL, BSA 0.2 ug/uL, protease inhibitor, on ice 30 min; 5% native PAGE, 0.5X TBE, 4 C; pH not stated; protein in an extract; label: unlabeled"}, "[3]": {"biological_target": "T2, NFAT1 (recombinant human, TnT) (Homo sapiens) (UniProt Q13469)", "T2 sequence (looked up, limits assumed)": "T1 sequence (looked up, limits assumed)", "experiment": "EMSA", "settings": "EMSA: 50 mM NaCl, 10% glycerol, poly dI:dC 50 ng/uL, BSA 0.2 ug/uL, protease inhibitor, on ice 30 min, 5% native PAGE, 0.5X TBE, 4 C, pH not stated, protein translated in vitro"}, "[4]": {"biological_target": "GATA3 (recombinant human, TnT) (Homo sapiens) (UniProt P23771)", "experiment": "EMSA", "settings": "EMSA: 50 mM NaCl, 10% glycerol, poly dI:dC 50 ng/uL, BSA 0.2 ug/uL, protease inhibitor, on ice 30 min, 5% native PAGE, 0.5X TBE, 4 C, pH not stated, protein translated in vitro"}, "[5]": {"biological_target": "GATA3 (recombinant human, TnT) (Homo sapiens) (UniProt P23771)", "experiment": "competition with a labelled probe", "settings": "100X cold competitor, EMSA: 50 mM NaCl, 10% glycerol, poly dI:dC 50 ng/uL, BSA 0.2 ug/uL, protease inhibitor, on ice 30 min, 5% native PAGE, 0.5X TBE, 4 C, pH not stated, protein translated in vitro"}, "[6]": {"biological_target": "T1, NFAT1 (Th2 nuclear extract) (Homo sapiens)", "experiment": "EMSA supershift", "settings": "PMA/ionomycin 3 h extract; EMSA: 50 mM NaCl, 10% glycerol, poly dI:dC 50 ng/uL, BSA 0.2 ug/uL, protease inhibitor, on ice 30 min; 5% native PAGE, 0.5X TBE, 4 C; pH not stated; protein in an extract; label: 5'-32P as probe, unlabeled as competitor"}, "[7]": {"biological_target": "GATA3 (Th2 nuclear extract) (Homo sapiens) (UniProt P23771)", "experiment": "EMSA supershift", "settings": "PMA/ionomycin 3 h extract; EMSA: 50 mM NaCl, 10% glycerol, poly dI:dC 50 ng/uL, BSA 0.2 ug/uL, protease inhibitor, on ice 30 min; 5% native PAGE, 0.5X TBE, 4 C; pH not stated; protein in an extract; label: 5'-32P as probe, unlabeled as competitor"}, "[8]": {"biological_target": "GATA3 (recombinant human, TnT) (Homo sapiens) (UniProt P23771)", "experiment": "EMSA with self-competition and supershift", "settings": "EMSA: 50 mM NaCl, 10% glycerol, poly dI:dC 50 ng/uL, BSA 0.2 ug/uL, protease inhibitor, on ice 30 min; 5% native PAGE, 0.5X TBE, 4 C; pH not stated; protein translated in vitro; label: 5'-32P as probe, unlabeled as competitor"}, "[9]": {"settings": "label: 5'-32P as probe, unlabeled as competitor"}}, "note": "The exact form of at least one protein or probe is not confirmed. For some of these results: Negatives hold for the conditions tested. For some of these results: Protein sequences can lack the tags named with them. For some of these results: Weaker means in comparison with the reference protein, sequence or condition of that experiment. For some of these results: At least one result comes from cells or an extract, where the contact may be indirect. For some of these results: At least one verdict was read from the data and is not stated in words by the source."}
{"sequence": "CCTCTATCTGATTGTTAGCC (double strand) [GATA3 consensus]", "values": [{"measurement": "binding result", "setting": "[1]", "result": "binds"}]}
{"sequence": "CGGAGGAAAAACTGTTTCATACAGAAGGCGTG (double strand) [NFAT consensus]", "values": [{"measurement": "binding result", "setting": "[2]", "result": "binds"}]}
{"sequence": "CGGCATTCATGGAAATTGATGAAATTTGAAC (double strand) [GATA3-m1+m3 (Gm1+m3)]", "values": [{"measurement": "binding result", "setting": "[3]; binds (lane 9), appeared lower affinity than Gm3 probe (lane 10), label: 5'-32P as probe, unlabeled as competitor", "result": "binds more weakly"}, {"measurement": "binding result", "setting": "[4]; [9]", "result": "no binding"}, {"measurement": "binding result", "setting": "[5]; [9]", "result": "no binding"}]}
{"sequence": "CGGCATTCATGGAAATTGATGATATTTGAAC (double strand) [GATA3-m1 (Gm1)]", "values": [{"measurement": "binding result", "setting": "[4]; [9]", "result": "no binding"}, {"measurement": "binding result", "setting": "[5]; [9]", "result": "no binding"}]}
{"sequence": "CGGCATTGATCCTTATTGATGATATTTGAAC (double strand) [NFAT1.1 (N1 mutant)]", "values": [{"measurement": "binding result", "setting": "[3]; label: 5'-32P", "result": "no binding"}, {"measurement": "binding result", "setting": "[4]; label: 5'-32P", "result": "binds"}]}
{"sequence": "CGGCATTGATGGAAATTCATGATATTTGAAC (double strand) [GATA3-m2 (Gm2)]", "values": [{"measurement": "binding result", "setting": "[5]; label: unlabeled", "result": "binds"}]}
{"sequence": "CGGCATTGATGGAAATTGATGAAATTTGAAC (double strand) [GATA3-m3 (Gm3)]", "values": [{"measurement": "binding result", "setting": "[3]; [9]", "result": "binds"}, {"measurement": "binding result", "setting": "[4]; [9]", "result": "no binding"}, {"measurement": "binding result", "setting": "[5]; [9]", "result": "no binding"}]}
{"sequence": "CGGCATTGATGGAAATTGATGATATTTGAAC (double strand) [CRTh2 proximal]", "values": [{"measurement": "binding result", "setting": "[6]", "result": "binds"}, {"measurement": "binding result", "setting": "[7]", "result": "binds"}, {"measurement": "binding result", "setting": "[8]", "result": "binds"}]}
